Assay results published in patent US11229685B2, “Fungal iron acquisition inhibitors and uses thereof” (priority 2013, dated 2022).
At least one compound was matched to its structure with a doubt left.

Legend:
A. fumigatus = test: In vitro human neutrophil:hyphae growth inhibition assay (calcofluor white fluorometry); type: cell-based, Aspergillus fumigatus; settings: for A. fumigatus growth in the presence of human neutrophils: plus human neutrophils, vs neutrophils alone
Method: (§1) FIGS. 8(A-G) illustrate a schematic drawing, images, and graphs showing the effect of topical simvastatin and deriprone on fungal infection. A. Statin targeting of fungal HMG-CoA reductase in siderophore biosynthesis. B, C. Effect of statins and iron chelators on growth of A. fumigatus and F. oxysporum in vitro. B. Simvastatin, lovastatin, deferiprone, or deferroxamine were added to growing cultures of A. fumigatus or C. F. oxysporum for 16 h, and hyphal growth was quantified by calcofluor white. D. Growth of A. fumigatus incubated with these compounds in the absence (black bars) or presence (gray bars) of human neutrophils by calcofluor white quantification (data are mean+/−SEM of five replicate wells) E. C57BL/6 mice were infected with A. fumigatus and at 0 and 6 h post-infection 13.4 μg of simvastatin (Sv), deferiprone (11.1 μg), deferroxamine (52.5 μg), Sv+ deferiprone, or Sv+ deferroxamine was applied topically to infected corneas and eyes were imaged at 24 h post-infection. F. Metamorph image analysis was used to quantify fungal dsRed expression and G. eyes were homogenized for CFU analysis. B-D: data are mean+/−SEM of five replicate wells; F, G: data points represent individual corneas.
Human neutrophils were isolated from normal, healthy donors using Ficoll-Paque Plus (GE) density centrifugation as described. Isolated conidia from each A. fumigatus mutant were cultured in 200 μl SDA media (12,500/well) in black-wall 96 well plates with an optically clear bottom (CoStar 3720) until early germ tubes were observed (4-6 h). Wells were washed twice with sterile ddH2O and incubated 16 h with either RPMI media (+ Control), PBS (− Control), or a sublethal dose of human peripheral blood neutrophils in RPMI (0.5−1*10^5/well). At 16 h post-exposure, plates were washed once and stained with 50 μl calcofluor white stain (Binds chitin; Fluka 18909) for 5 min in the dark. Subsequently, plates were washed three times with ddH2O and quantified by fluorometry (360/440 nm; Synergy HT; Biotek). […]

F. oxysporum = test: In vitro hyphal growth of F. oxysporum with statins and iron chelators (calcofluor white); type: cell-based, Fusarium oxysporum; settings: incubation in media for 16 h; b217 says results similar to A. fumigatus (less growth with statins and deferiprone, not deferroxamine)
Method: as §1, with “B-D: data are mean+/−SEM of five replicate wells; F, G: data points represent individual corneas.” left out
Human neutrophils were isolated from normal, healthy donors using Ficoll-Paque Plus (GE) density centrifugation as described. […] Subsequently, plates were washed three times with ddH2O and quantified by fluorometry (360/440 nm; Synergy HT; Biotek). […]

SMILES | growth of A. fumigatus (A. fumigatus; incubation in media for 16 h, no neutrophils) | A. fumigatus growth in the presence of human neutrophils (A. fumigatus) | growth of Fusarium oxysporum (F. oxysporum)
CC(=O)N(O)CCCCCNC(=O)CCC(=O)N(O)CCCCCNC(=O)CCC(=O)N(O)CCCCCN [deferroxamine] | but not deferroxamine | growth similar to incubation with neutrophils alone | –
CCC(C)(C)C(=O)O[C@H]1C[C@@H](C)C=C2C=C[C@H](C)[C@H](CC[C@@H]3C[C@@H](O)CC(=O)O3)[C@H]21 [simvastatin] | – | inhibited | significantly less fungal cell growth
